According to the supplement of paper PMC4635364:
Counter-ions that a name gives are not always drawn. The list shows a part of the results. Single values are uncertain here, since repeats match poorly.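 ReNCell VM, a human fetal ventral-midbrain neural progenitor line, was differentiated without mitogens. Blinded raters scored images stained for doublecortin (early neurons) or tyrosine hydroxylase (dopaminergic neurons) against untreated wells (0 = no change). Scores were averaged across repeats and both raters, and compounds averaging 2 or more were selected as hits for retesting.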

What follows are compounds tested on ReNCell VM (assay: neuronal differentiation score (DCX+ cell fraction vs untreated, manual image score) (score (-3 to 3)); higher = more neuronal differentiation). Conditions: library: Natural; 2 uM; 2 weeks.

Neuronal differentiation score, inactive:
O=C(O)C1Cc2c([nH]c3ccccc23)C(c2coc3ccccc3c2=O)N1 (stereo not given) 0
COc1c2ccoc2nc2c(OC)c(O[C@@H]3O[C@@H](C)[C@H](O)[C@@H](O)[C@H]3O)ccc12 [glycoperine] 0
C=C1C[C@]23CC4[C@@H]5[C@@]6(C)C[C@H](O)C[C@]57C(C2[C@@H](O)[C@H]1[C@@H](O)[C@H]37)N4C6 [hetisine] 0
O=C(NC[C@@H](O)c1ccccc1)c1ccccc1 [(-)-n-benzoyl-2-hydroxy-2-phenylethylamine] 0
CC1(C)CCCC2(C)C1CCC(C)(O)C2CCC(C)(O)C1CO1 (stereo not given) 0

Same assay, conditions: library: Prestwick; 2 uM; 2 weeks

Neuronal differentiation score, inactive:
CN(C)CCN1C(=O)c2ccccc2N(C)c2ccccc21 [Dibenzepine hydrochloride] 0
CN1[C@@H]2CC[C@H]1C[C@@H](OC(=O)C(O)c1ccccc1)C2 (mixture of isomers) [Homatropine hydrobromide (R,S)] 0
Clc1ccc(C(c2ccccc2Cl)C(Cl)Cl)cc1 (stereo not given) [Mitotane] 0
Nc1ccn([C@H]2CC[C@@H](CO)O2)c(=O)n1 [Zalcitabine] 0
CC1(C)S[C@@H]2[C@H](NC(=O)[C@H](N)c3ccccc3)C(=O)N2[C@H]1C(=O)O [Ampicillin trihydrate] 0
CCCCC1(COC(=O)CCC(=O)O)C(=O)N(c2ccccc2)N(c2ccccc2)C1=O [Suxibuzone] 0

Same assay, conditions: library: Spectrum; 2 uM; 2 weeks

Neuronal differentiation score, inactive:
OCC(O)C(O)C(O)CO (stereo not given) 0
C[C@H]1[C@H](C)CC[C@]2(C(=O)O)CC[C@]3(C)C(=CC[C@@H]4[C@@]5(C)C[C@@H](O)[C@H](O)[C@@](C)(CO)[C@@H]5CC[C@]43C)[C@H]12 0
COc1cc(-c2coc3cc(OCc4ccccc4)c(OC)c(O)c3c2=O)cc(OCc2ccccc2)c1OC 0
CCN1CCCC(OC(=O)C(c2ccccc2)c2ccccc2)C1 (stereo not given) 0
C=CC(C1=CC(=O)C(OC)=CC1=O)c1ccccc1 (stereo not given) 0
COc1ccc2c(c1)OC[C@@H](Cc1ccc(OC)c(OC)c1)[C@H]2O 0
C[C@]1(OC(=O)/C=C/c2ccccc2)C[C@@H](O)[C@]2(O)C=CO[C@@H](O[C@@H]3O[C@H](CO)[C@@H](O)[C@H](O)[C@H]3O)[C@@H]21 0
CC(C)NCC(O)COc1ccc(COCCOC(C)C)cc1 (stereo not given) 1
CCOc1ccc2ccccc2c1C(=O)N[C@@H]1C(=O)N2[C@@H]1SC(C)(C)[C@@H]2C(=O)O 0
Cn1c(=O)[nH]c2ncn(C)c2c1=O 0
COC(=O)CC[C@@H](C)[C@H]1CC[C@H]2[C@@H]3CC[C@@H]4C[C@H](O)CC[C@]4(C)[C@H]3C[C@H](O)[C@]12C 0
CN(C)CCC[C@@]1(c2ccc(F)cc2)OCc2cc(C#N)ccc21 0
CC(C)(C)CC(C)(C)c1ccc(OCCOCC[N+](C)(C)Cc2ccccc2)cc1 0
NS(=O)(=O)c1cc2c(cc1Cl)NCNS2(=O)=O 0
NCCCNCCCCNCCCN 0

Seven successive compounds out of the list so far:
Neuronal differentiation score, inactive:
C[C@H]1[C@H](C)CC[C@]2(C(=O)O)CC[C@]3(C)C(=CC[C@@H]4[C@@]5(C)C[C@@H](O)[C@H](O)[C@@](C)(CO)[C@@H]5CC[C@]43C)[C@H]12 0
COc1cc(-c2coc3cc(OCc4ccccc4)c(OC)c(O)c3c2=O)cc(OCc2ccccc2)c1OC 0
CCN1CCCC(OC(=O)C(c2ccccc2)c2ccccc2)C1 (stereo not given) 0
C=CC(C1=CC(=O)C(OC)=CC1=O)c1ccccc1 (stereo not given) 0
COc1ccc2c(c1)OC[C@@H](Cc1ccc(OC)c(OC)c1)[C@H]2O 0
C[C@]1(OC(=O)/C=C/c2ccccc2)C[C@@H](O)[C@]2(O)C=CO[C@@H](O[C@@H]3O[C@H](CO)[C@@H](O)[C@H](O)[C@H]3O)[C@@H]21 0
CC(C)NCC(O)COc1ccc(COCCOC(C)C)cc1 (stereo not given) 1

Same assay, conditions: library: Tocriscreen; 2 uM; 2 weeks

Neuronal differentiation score, inactive:
NCCNC(=O)c1ccc(Cl)cn1 [Lazabemide hydrochloride] 0
NC(N)=NC(N)=Nc1cccc(Cl)c1 [m-Chlorophenylbiguanide hydrochloride] 0
O=C(COc1cccc2c(=O)[nH]ccc12)c1ccccc1 0
Oc1ccc(Nc2nc(-c3ccc(Cl)cc3)cs2)cc1 0
Oc1cc2c(c(Cl)c1O)CCNCC2c1ccccc1 (stereo not given) 0

The compounds below were run on ReNCell VM (assay: dopaminergic neuron differentiation score (TH+ cell fraction vs untreated, manual image score) (score (0 to 3)); higher = more TH+ dopaminergic neuron differentiation). Conditions: library: LOPAC; 2 uM; 4 weeks; BDNF 10 ng/ml + GDNF 10 ng/ml.

Dopaminergic neuron differentiation score, inactive:
CC(=O)OCC1=C(C(=O)O)N2C(=O)[C@@H](NC(=O)CSc3ccncc3)[C@H]2SC1 [Cephapirin sodium] 0
O=c1c(O)c(-c2ccc(O)cc2O)oc2cc(O)cc(O)c12 [Morin] 0
Nc1nc(Cl)nc2c1ncn2[C@@H]1O[C@H](COP(=O)(O)OP(=O)(O)OP(=O)(O)O)[C@H](O)C1O (stereo not given in full) [2-Chloroadenosine triphosphate tetrasodium] 0
COc1cc2nc(N3CCN(C(=O)OCc4ccccc4)[C@H](C(=O)NC(C)(C)C)C3)nc(N)c2cc1OC 1
C[C@H]1O[C@@H](n2cc(F)c(=O)[nH]c2=O)[C@H](O)[C@@H]1O [5-fluoro-5'-deoxyuridine] 0
CCCCS(=N)(=O)CCC(N)C(=O)O (racemic) [DL-Buthionine-[S,R]-sulfoximine] 0
N=C(N)NCCC[C@H](N)C(=O)O [L-Arginine] 0
NCCCCC(=O)O [5-Aminovaleric acid hydrochloride] 0
O=c1[nH]cc(F)c(=O)[nH]1 [5-Fluorouracil] 0
